Measurements published in publication PMC6678468.
These are yes or no findings as the source states them, for the method shown. In cells and extracts the contact can be indirect. A result given as binding can be weak or reduced; the word gives no strength.

Target: T1, PEX19 (human (endogenous in U251)) (UniProt P40855)
T1 sequence: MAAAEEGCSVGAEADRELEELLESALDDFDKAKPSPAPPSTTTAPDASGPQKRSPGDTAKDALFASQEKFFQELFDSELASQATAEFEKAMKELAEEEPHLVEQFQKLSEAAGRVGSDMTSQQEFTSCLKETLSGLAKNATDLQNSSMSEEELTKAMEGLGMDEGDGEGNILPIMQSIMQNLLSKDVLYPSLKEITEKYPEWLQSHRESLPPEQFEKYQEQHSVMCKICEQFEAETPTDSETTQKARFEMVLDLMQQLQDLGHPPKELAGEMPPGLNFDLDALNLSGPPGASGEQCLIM
Experiment: co-IP; lysates of U251 cells infected with ZIKV PRVABC59 (MOI = 1, 48 h); NP-40 lysis buffer (150 mM NaCl, 2 mM EDTA, 1% NP-40, 50 mM Tris-HCl pH 7.4, 1 mM DTT); treated with 20 ug/mL RNase A; IP with rabbit anti-ZIKV capsid or rabbit anti-PEX19 (rabbit IgG as negative control), protein G-Sepharose, 4 °C; immunoblot for PEX19 or ZIKV capsid

ZIKV capsid protein (strain PRVABC59) (Zika virus (strain PRVABC59))
binding: binds
